Experimental findings from patent US11485776B2, “Antibodies against infectious diseases” (priority 2015, dated 2022) are described below.

The data set deals with CaENO1.

Where “and” joins values, the source holds several entries; their conditions need not be identical. Equal values may be shown once.

B1: CaS1 scFv: anti-CaENO1 scFv monoclonal antibody from chicken phage library; light chain SEQ ID NO:11, heavy chain SEQ ID NO:12 (antibody, V domains shown)
VH: TVTLDESGGGLQTPRGALSLVCKASGFTFIDYGMQWVRQAPGKGLEWVAGIGSSGSSTNYGAAVKGRATISRDDGQSTVRLQLNNLRAEDTGTYYCAKSAGGYCVNGAGCNGGSIDAWGHGTEVIVSS
VL: ALTQPSSVSANLGGTVKITCSGGSGSYGWYQQKSPGSAPVTVIYSNNQRPSNIPSRFSGSPSGSTGTLTITGVQADDEAVYFCGSRDSSYVGVFGAGTTLTVL
modifications: scFv linker; amino acid sequence comprised in a heavy chain of an anti-CaENO1 scFv monoclonal antibody (CaS1); amino acid sequence comprised in a light chain of an anti-CaENO1 scFv monoclonal antibody (CaS1)
Consider B1, for which the “Epitope on CaENO1” value is “residues 235 to 300 and 240[…]249 (SEQ ID NO:3) and 278[…]292”.
